We go through 1 molecule from patent US20060167096A1, “Livestock products with an increased ppar/rxr heterodimer activator level” (priority 2003, published 2006).

In series [1] the test system is ROSS 308 broiler chicks. In words: Broiler feeding trial with phytol supplemented feed. Type of series: in vivo, chicken. The note with it: 2% phytol in feed, 42 days. The protocol:
In the present specification the level of the PPAR/RXR heterodimer activator is expressed as a percentage of total FAME fatty acids. These total FAME fatty acids comprise those fatty acids with a linear chain of at least 12 carbons and are measured by the so-called FAME technique, which is well known for the skilled person and wherein, first, fatty acid methyl esters are prepared which are, subsequently, analysed via gas chromatography. The FAME procedure used for determining the results obtained by the present invention was as follows. Lipids were extracted from the samples using a dissolving solution that is specific to each sample type. Nonadecanoic acid (19:0) was added as an internal standard. The two-step methylation procedure consisted of using a basic reagent NaOH/methanol followed by an acid reagent HCI/methanol. The fatty acid methyl esters (FAME) were analyzed by GC (HP 6890, Hewlett-Packard, Brussels, Belgium) using a CP-Sil88 column for FAME (100 m×250 μm×0.25 μm) (Chrompack, Middelburg, The Netherlands). The GC conditions were as adapted to each sample type. Peaks were identified by comparison of retention times with those of the corresponding standards (Sigma, Botnew, Belgium; Nu-Chek-Prep, Elysian, M N). Identification of the peaks included fatty acids between 12:0 and 22:6 and 5 different CLA isomers and phytanic acid and pristanic acid. […]

The subject of series [2] is Tiger shrimp (Penaeus Monodon). In words: Shrimp feeding trial with phytol supplemented diet. In kind it is in vivo. The settings on record: 2% phytol diet, last two weeks.
Series [3] relates to ISABROWN layers. As to the kind of experiment: Layer feeding trial with phytol supplemented feed. In kind it is in vivo. The note with it: 2% phytol fed.

Turning to `C/C(=C\CO)CCC[C@H](C)CCC[C@H](C)CCCC(C)C` [phytol], in series [1], the feed conversion rate amounted to 2.120 and the “ratio breast weight/total weight” value is given as 14.4%. In series [2], this molecule yielded a feed consumed of 53.7 g. In series [3], this molecule came in with an ADFI of 103.8 g/a/d, a Daily egg mass of 52.1 g/a/d, an Egg weight of 62.8 g/a/d and an FCR of 2.0. This molecule displayed a Laying rate in series [3] of 83.0%. Also, the “quality of the eggs (shell quality, color of the yolk)” value in series [3] (except less reddish yolk) is reported as “did not change significantly”.
